Results are given in words; binding and its absence hold for the method and conditions named. In cells and extracts the contact can be indirect. Here binding means that the protein was enriched with, or labelled near, the bait; the list need not be complete. For part of these data: Sequences can lack the tags named with a protein.
T1: GFP–TtNup93 (T. thermophila) (UniProt Q241A4)
T1 sequence: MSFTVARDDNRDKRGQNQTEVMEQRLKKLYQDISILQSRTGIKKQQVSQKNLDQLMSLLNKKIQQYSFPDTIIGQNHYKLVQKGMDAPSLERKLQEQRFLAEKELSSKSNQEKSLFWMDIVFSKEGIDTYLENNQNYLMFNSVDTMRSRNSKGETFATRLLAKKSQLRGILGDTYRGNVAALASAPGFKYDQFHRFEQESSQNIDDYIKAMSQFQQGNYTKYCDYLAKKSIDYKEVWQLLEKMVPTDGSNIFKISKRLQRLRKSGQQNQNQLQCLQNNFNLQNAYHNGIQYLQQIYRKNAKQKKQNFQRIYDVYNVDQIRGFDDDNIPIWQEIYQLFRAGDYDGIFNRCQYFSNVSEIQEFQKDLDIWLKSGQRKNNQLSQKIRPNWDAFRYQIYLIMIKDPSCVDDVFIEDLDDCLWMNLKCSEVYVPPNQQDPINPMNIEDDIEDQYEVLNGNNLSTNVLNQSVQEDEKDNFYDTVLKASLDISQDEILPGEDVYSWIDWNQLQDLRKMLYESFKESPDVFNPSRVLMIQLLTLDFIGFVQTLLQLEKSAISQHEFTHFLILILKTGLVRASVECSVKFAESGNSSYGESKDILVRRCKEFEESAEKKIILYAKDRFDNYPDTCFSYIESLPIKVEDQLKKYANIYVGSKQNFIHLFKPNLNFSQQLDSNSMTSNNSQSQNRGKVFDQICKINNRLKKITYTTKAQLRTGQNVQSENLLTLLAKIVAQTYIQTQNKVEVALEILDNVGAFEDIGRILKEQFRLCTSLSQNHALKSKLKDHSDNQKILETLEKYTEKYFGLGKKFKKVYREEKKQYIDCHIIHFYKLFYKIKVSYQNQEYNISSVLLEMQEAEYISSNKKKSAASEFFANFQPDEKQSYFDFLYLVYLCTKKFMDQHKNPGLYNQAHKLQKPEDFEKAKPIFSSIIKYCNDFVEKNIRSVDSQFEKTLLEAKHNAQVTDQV

By UniProt entry, the sequences of proteins in these tests, tags left out. Where a name states a change or a piece, a line headed by the entry shows the natural chain unless it says otherwise. Chains listed by the source or under a name are the forms on record and can include a tag or linker.
GFP–Nup185 (I7MFN0, form named): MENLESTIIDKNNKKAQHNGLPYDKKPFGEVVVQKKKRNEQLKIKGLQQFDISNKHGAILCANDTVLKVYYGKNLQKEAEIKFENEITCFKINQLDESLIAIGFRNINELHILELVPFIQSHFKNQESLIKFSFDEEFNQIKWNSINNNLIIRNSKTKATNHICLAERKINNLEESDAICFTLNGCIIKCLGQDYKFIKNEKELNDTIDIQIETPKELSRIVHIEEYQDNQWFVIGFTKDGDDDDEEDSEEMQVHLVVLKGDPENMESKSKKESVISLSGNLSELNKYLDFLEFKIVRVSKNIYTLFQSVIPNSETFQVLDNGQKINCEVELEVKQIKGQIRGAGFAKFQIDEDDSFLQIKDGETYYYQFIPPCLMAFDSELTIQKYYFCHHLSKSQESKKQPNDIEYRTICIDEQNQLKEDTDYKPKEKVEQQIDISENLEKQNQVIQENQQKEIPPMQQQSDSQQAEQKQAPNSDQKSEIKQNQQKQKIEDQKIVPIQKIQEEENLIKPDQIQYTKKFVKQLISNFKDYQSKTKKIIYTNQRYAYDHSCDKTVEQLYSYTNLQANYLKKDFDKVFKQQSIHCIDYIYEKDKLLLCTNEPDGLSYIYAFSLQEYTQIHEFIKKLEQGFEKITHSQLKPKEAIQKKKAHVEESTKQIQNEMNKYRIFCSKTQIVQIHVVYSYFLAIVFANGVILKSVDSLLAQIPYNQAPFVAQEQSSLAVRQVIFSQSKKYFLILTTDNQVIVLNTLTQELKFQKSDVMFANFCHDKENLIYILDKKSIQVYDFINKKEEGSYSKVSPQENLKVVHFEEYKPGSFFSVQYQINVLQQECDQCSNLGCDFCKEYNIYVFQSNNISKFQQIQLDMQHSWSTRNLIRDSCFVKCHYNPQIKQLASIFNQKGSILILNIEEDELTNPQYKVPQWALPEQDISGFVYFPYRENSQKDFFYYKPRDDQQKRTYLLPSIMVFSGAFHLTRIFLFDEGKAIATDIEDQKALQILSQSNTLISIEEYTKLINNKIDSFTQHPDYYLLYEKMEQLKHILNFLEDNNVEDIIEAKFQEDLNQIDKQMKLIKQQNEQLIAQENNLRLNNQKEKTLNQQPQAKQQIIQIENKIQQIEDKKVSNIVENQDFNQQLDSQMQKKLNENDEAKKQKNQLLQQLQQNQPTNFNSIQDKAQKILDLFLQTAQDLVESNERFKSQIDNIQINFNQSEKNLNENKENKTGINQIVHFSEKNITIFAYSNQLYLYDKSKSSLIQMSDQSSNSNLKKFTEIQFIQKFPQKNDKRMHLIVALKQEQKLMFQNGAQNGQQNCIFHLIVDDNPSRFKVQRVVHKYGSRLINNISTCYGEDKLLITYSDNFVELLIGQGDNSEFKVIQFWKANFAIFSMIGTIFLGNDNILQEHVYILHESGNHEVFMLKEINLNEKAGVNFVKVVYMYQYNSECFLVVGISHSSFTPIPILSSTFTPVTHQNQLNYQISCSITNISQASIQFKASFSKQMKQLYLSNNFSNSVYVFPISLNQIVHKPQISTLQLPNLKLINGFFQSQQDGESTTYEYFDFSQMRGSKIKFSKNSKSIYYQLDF
UniProt Q236D1: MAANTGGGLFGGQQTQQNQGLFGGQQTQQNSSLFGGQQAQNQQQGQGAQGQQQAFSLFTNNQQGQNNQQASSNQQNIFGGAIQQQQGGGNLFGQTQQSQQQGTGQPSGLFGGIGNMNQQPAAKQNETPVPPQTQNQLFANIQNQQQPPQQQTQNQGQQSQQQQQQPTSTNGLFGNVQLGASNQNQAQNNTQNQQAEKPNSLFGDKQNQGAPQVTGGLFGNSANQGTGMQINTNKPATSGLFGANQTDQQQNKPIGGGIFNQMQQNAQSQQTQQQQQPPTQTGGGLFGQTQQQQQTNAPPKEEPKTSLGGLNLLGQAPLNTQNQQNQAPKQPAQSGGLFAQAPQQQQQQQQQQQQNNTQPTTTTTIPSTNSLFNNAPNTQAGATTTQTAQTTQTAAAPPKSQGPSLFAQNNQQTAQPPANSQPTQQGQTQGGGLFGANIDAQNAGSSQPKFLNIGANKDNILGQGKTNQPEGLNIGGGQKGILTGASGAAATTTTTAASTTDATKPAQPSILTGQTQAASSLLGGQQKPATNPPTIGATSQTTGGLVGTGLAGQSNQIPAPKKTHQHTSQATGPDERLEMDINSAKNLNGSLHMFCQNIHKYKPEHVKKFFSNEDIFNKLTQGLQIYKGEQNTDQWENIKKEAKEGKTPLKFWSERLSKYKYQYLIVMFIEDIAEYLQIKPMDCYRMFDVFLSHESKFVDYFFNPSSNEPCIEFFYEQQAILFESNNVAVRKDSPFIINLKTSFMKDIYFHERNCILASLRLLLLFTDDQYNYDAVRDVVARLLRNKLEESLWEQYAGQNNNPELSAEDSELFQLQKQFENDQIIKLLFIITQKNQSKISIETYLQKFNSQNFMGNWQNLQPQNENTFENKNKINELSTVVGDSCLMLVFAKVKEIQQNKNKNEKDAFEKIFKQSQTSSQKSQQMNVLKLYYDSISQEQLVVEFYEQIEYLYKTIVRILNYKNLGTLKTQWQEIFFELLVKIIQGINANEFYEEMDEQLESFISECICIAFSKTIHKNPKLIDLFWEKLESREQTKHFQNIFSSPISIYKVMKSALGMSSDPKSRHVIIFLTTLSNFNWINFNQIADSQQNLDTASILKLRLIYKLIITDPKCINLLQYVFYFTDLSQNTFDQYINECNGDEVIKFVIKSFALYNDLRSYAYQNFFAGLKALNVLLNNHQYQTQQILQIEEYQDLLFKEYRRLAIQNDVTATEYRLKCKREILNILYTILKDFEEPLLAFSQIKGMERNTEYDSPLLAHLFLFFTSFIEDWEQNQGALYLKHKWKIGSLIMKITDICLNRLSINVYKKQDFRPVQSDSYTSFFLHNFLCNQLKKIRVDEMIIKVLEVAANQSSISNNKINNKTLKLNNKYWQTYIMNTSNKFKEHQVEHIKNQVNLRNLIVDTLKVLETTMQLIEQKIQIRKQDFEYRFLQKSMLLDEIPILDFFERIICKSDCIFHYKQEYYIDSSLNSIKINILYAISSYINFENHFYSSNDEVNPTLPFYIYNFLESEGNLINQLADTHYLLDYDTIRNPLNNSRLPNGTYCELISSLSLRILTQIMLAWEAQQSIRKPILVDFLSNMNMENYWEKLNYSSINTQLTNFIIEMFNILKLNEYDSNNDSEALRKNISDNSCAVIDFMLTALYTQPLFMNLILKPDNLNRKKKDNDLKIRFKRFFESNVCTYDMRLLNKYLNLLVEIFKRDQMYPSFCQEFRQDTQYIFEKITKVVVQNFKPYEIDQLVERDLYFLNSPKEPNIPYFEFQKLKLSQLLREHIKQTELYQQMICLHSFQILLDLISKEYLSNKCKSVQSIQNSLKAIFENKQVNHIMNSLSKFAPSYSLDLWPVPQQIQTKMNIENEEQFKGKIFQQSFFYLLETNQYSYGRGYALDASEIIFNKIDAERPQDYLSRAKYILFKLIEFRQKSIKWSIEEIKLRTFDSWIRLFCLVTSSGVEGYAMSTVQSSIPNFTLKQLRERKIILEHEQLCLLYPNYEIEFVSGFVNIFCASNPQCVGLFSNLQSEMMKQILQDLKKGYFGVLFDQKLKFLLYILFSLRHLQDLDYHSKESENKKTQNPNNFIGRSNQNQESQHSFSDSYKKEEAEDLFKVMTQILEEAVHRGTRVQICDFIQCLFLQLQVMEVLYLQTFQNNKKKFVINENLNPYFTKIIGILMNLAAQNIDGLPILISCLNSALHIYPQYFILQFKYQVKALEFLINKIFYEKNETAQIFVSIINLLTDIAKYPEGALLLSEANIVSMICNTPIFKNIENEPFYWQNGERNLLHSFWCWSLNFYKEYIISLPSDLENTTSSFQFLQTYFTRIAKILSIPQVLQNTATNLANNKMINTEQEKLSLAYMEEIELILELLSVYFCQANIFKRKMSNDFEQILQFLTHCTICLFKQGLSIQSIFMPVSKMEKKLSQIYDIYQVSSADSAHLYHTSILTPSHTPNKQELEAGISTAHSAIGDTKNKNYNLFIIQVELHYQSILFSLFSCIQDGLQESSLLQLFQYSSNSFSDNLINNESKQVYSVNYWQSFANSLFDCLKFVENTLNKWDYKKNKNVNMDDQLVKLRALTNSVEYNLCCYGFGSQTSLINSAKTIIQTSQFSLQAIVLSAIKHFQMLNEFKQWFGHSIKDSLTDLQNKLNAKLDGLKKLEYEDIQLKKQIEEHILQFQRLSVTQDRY


Legend:
[1] = molecular target: T1, GFP–TtNup93 (T. thermophila); test: affinity purification with mass spectrometry; anti-GFP rabbit polyclonal antibody and Protein-A–Sepharose on sonicated lysate of GFP–Nup-expressing T. thermophila cells in logarithmic growth; 150 mM NaCl, 1% Triton X-100, 4°C; bound proteins separated by SDS-PAGE, trypsinized, LC-MS/MS
[2] = molecular target: GFP–Nup185 (T. thermophila) (UniProt I7MFN0); test: as above

binding [1] | binding [2] | Molecule
binds |  | Nup308 (from UniProt Q236D1 1-2675)
binds |  | TtNup58 (protein, UniProt Q23K55 1-390) MSLFNQNQGVQIGGQKPGGLFQTTTTGQQGGGLFNNQPSLQLGGNQTGGLPVFGGNQQPAAGGTIFNNPIGQQAPAQGQGGIFANQKPIVQNQTQTNNQQQIQHTVQSQTWKEAKQLYQQLQNVKKEQISIERDVNVSDNNNIYAHKPVNILPKEFFDELTNINKDIQKTEQDVAKLVDSQRELFNQIQETRKVIQQSSLSLKQTAQQVKDIQETVNELITEQQDQKQYITNFFYTFTNYLENHQFPRLILPQPFIIKAQEKFQLKLEKLQRQIDEVEQMLQVEIQKRNDEEELAFIFVIVEQLFKYFNNVTALVYEFHKHYESFRMKIVHIQDQREFGFASDLNESTKQSLNEENRYFKLLSNISDNLEKQIRKHEEEQQIKQPNEKRI
 | binds | TtTpr (protein, UniProt I7ME84 1-1392) MDSNQAADQEKQVEAQNEEQKQEQENNEQKENESEQAQTDPQISSGSNQKFDIEITDEDNDPEIENNQTIEQMKFKAYDLKAELKKVGNLAEELKVKFANLETDYDQCKDEKEELEKKYKQSIEKYGEMMKNYEHQIISLENENNIRIQQLQQQIDELKKQNEEKEQSYLNMQQQIKQDKQSFDDIQNKYEEINKHNQEQFKQNSDQWVKLVNLTEEVIFNFYNSNFFTENKDDISSQTHIILQHQQTFQQLIEKYVTFLAEQKEKNEAISDEAFNKIKSENGNGVQKTNQRVQDLQQKFEAYQQQFNKLNSESQENETKLQETKKQLEDLQNELGNKNNQIQELNEQHQKSQTEIQKLNEQITSNQQRIEELQKNENILVEKDKNINEIKEQLSALNQQIEGFKDIQNKLDTKTEEFEKLEKDFNQQKSELEEKIKSKDEEIENLSKKIQDIVEQQQEKQKQLDDLNSNLQNSNKENEQLKQEINDFKNKINNSNQDQEQQSNQLKAELKQTQEQLNDSQQKFEQADKELKDLKQQIEDEKVKLNDKSQESENLKDQLKSANEKLNESQQKLEQIQKNFDDLKQNNDLQKIVDEKQQKCEELERELKELKTQQEQVTAQVQQLNVEKEEIQTKFNQVEQEKEQLKKQEQEKIDLLSQAKQEKENNEQEINNLKQTIANLEKERTDIQIQSQEKDKQLDDAKHTLENLNKEIEQLKNQNQAIGDVNEKNKQLESEITQIKSEIEQKNTEIQSLNSKNETEISEKKQQLEDHTKQVNQLNEQIHQLSTENENLKNEIQTNQNISQTKLTDLNSEIEGFQKEIEETKLQLDDKNTQLKGLQVKLEALEKQLLEKNEEIQKVNQQLKESEQKHEAIQKQNEELQNSLKTLEEKDYNQIQNDLNQQVSDLKQKEQDLNKQLDQKLQEINQIKQQLSNETSDFMKKNVQLQQTIQQLNQTISQYQEQIERIKTDLYQSQQEKSQLQSKLNEANREIQNKEDDLNKKVEIIAELEQNNKDLKINLHNYEVKSYDLDKERFDVLEIQIQHNKEQQVQYKQAEEKIQKLEEEIKKLLADKTDSLEKLQKEIKTEQVIGEEMSKKFRSNLAELQINNEQNSLENSQKTINQLAEVVLRKVKDCFYSSTKIVQISRLFYDGSDGRNASQDNALSLIQELNEAQHASITIHKLLGFEYKKFKNILPIQYLRNDFKVINQTENTTQPLYVNENDQVAQYAIVNYEIQNNKFYVGLIQFDVVSTYFRVGFVPVNPQTKQEQWGEAIYANFCLNHEAANSKNYRNLVRINHFNPIFSIKKGYIYIRFNIQKNIFQFCDTNYQLSELSKCQFKSDLHYKLFIGMKETKGHFQIVDLKEQSRDEDINIMTQIFSNEQPQFEDLIRLFI
